A weaker result is weaker than the reference pair of the same experiment. Protein sequences can lack the tags named with them.
Biological target: T1, MS2 coat protein (MCP) (Enterobacteria phage MS2) (UniProt P03612)
T1 sequence (looked up, limits assumed): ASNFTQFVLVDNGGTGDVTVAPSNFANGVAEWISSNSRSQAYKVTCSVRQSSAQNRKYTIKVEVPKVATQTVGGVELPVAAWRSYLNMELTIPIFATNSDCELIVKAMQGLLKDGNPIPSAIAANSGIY
Assay: EMSA
Details: nanomolar range, about 10-fold weaker than C-variant, purified recombinant protein, label: 5' fluorescein

Sequence	binding result (100 mM NaCl, room temperature)	binding result
ACAUGAGGAUUACCCAUGU [MS2 wt stem loop (U at -5)]	binds more weakly	–
CGCAGAGGAAUACCCUGCG [V6/V7 SL_9 wt (Loop2 U)]	–	binds more weakly
GACGCAGGACUACCGCGUC [V6/V7 SL_1 wt (Loop1 U)]	–	binds more weakly

Source: patent US20210139964, “RNA TAGGING SYSTEM FOR VISUALIZATION OF SINGLE MRNA MOLECULES” (ALBERT EINSTEIN COLLEGE OF MEDICINE, published 2021)
